This note sets out measurements from PubChem BioAssay AID328 (DTP/NCI, 2004).

This test deals with BDF1 mice, P388 leukemia ip, median survival T/C. The test can be described thus: NCI In Vivo Anticancer Drug Screen. Data for tumor model P388 Leukemia (intraperitoneal) in B6D2F1 (BDF1) mice. The following applies: T/C endpoint: median survival time, higher T/C = longer survival. In a few lines:
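Antitumour effect was judged in vivo: survival in drug-treated mice, normalised to that of vehicle-dosed controls, gives the reported T/C.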

Setting [1] is: dose: 25.0 mg/kg/injection, schedule: Q01DX009 (ip), vehicle: saline.
Where [2] appears, read: dose: 50.0 mg/kg/injection, schedule: Q01DX009 (ip), vehicle: saline.
[3] abbreviates: dose: 100.0 mg/kg/injection, schedule: Q01DX009 (ip), vehicle: saline.
[4] abbreviates: dose: 200.0 mg/kg/injection, schedule: Q01DX009 (ip), vehicle: saline with Tween-80.
[5] abbreviates: dose: 400.0 mg/kg/injection, schedule: Q01DX009 (ip), vehicle: saline with Tween-80.
[6] abbreviates: dose: 50.0 mg/kg/injection, schedule: Q01DX009 (ip), vehicle: saline with Tween-80.
[7] abbreviates: dose: 100.0 mg/kg/injection, schedule: Q01DX009 (ip), vehicle: saline with Tween-80.

The list is a part of this screen's results and no random one: it gathers tests that were run many times, whatever their T/C, doses with no T/C, and many T/C values between a quarter and a half above the control. Further doses and runs are listed elsewhere. T/C gives the treated animals as a percentage of the vehicle group. Some doses have a count of surviving animals in place of a T/C: the source files T/C as zero there, which appears to mark a toxic dose or a test without result, not a measured value. Some survivor counts are full or nearly so, which does not show that the dose was tolerated: the source hardly ever lists a survival T/C far under the control, and the zero likely stands for such cases as well. Counts of survivors are from the toxicity check (mostly the fifth day) where no day follows; animals may have died later. Schedules are NCI's codes, taken here to give the interval after Q, in days (D) or hours (H), and the number of doses after X. Some entries were tested several times; the values are given in rising order. For survival time, this PubChem deposit counts one and a half times the control or more as active, and values a quarter to a half above the control carry no call in these data; other NCI protocols may use other cut-offs. Additions like (4×) count equal records among those shown. Some T/C values are followed by the survivors on the day toxicity was checked, most often the fifth; where none is given, no animal had died by that day.

In the case of `COc1cc2c(c(OC)c1OC)-c1cc(I)c(O)cc1[C@@H](NC(C)=O)CC2`, the survivor count (dose: 150.0 mg/kg/injection, schedule: Q04DX003 (ip), vehicle: saline with Tween-80) is recorded as 2 of 6.
`Cc1cccc2cc3cccc[n+]3cc12`: the survivor count runs as follows: (dose: 14.0 mg/kg/injection, schedule: Q01DX009 (ip), vehicle: saline) 0 of 6; (dose: 21.0 mg/kg/injection, schedule: Q01DX009 (ip), vehicle: saline) 0 of 6; (dose: 27.0 mg/kg/injection, schedule: Q04DX003 (ip), vehicle: saline) 5 of 6.
Consider `[Cl][Pt+2][Cl].[NH-]C1CCCC1.[NH-]C1CCCC1`, for which, for the setting “dose: 160.0 mg/kg/injection, schedule: Q01DX009 (ip), vehicle: Klucel (hydroxypropylcellulose) (HPC)”, the T/C is 127 % of control.
Regarding `Cc1ccc2c(ccc(C)[n+]2C)c1`, the T/C under setting [1] was 140 % of control; the T/C (dose: 44.0 mg/kg/injection, schedule: Q01DX009 (ip), vehicle: saline) was 127 % of control; the T/C under setting [2] was 127 % of control; the T/C (dose: 67.0 mg/kg/injection, schedule: Q01DX009 (ip), vehicle: saline) is 136 % of control; the T/C under setting [3] is 140 % of control. Besides, the survivor count by setting is: under setting [3], 2 of 6; (dose: 150.0 mg/kg/injection, schedule: Q01DX009 (ip), vehicle: saline) 0 of 6 and 3 of 6.
Regarding `CCNC(C)(C)C(=O)c1ccc(Cl)s1`, the survivor count reads like this: under setting [4], 6 of 6; under setting [5], 4 of 6.
For `CNc1n[n+](-c2ccccc2)no1`, the T/C by setting is: (dose: 6.3 mg/kg/injection, schedule: Q01DX009 (ip), vehicle: saline) 141 % of control; (dose: 12.5 mg/kg/injection, schedule: Q01DX009 (ip), vehicle: saline) 119 [5 of 6 alive], 138 [5 of 6 alive], 147, 149, 171 % of control; under setting [1], 120 [5 of 6 alive], 135 [5 of 6 alive], 148, 189, 203 % of control; under setting [2], 101 and 112 % of control [5 of 6 alive]. Also, the survivor count was 5 of 6 and 6 of 6 under setting [2]; 4 of 6 (dose: 50.0 mg/kg/injection, schedule: Q04DX003 (ip), vehicle: saline); 0 of 6 and 5 of 6 under setting [3]; 3 of 6 and 4 of 6 (dose: 100.0 mg/kg/injection, schedule: Q04DX003 (ip), vehicle: saline); 0 of 6 (dose: 200.0 mg/kg/injection, schedule: Q01DX009 (ip), vehicle: saline); 0 of 6 (dose: 200.0 mg/kg/injection, schedule: Q04DX003 (ip), vehicle: saline). For the same compound, the survivor count was 0 of 6 (dose: 400.0 mg/kg/injection, schedule: Q01DX009 (ip), vehicle: saline) and 1 of 6 (dose: 400.0 mg/kg/injection, schedule: Q04DX003 (ip), vehicle: saline).
On to `C#CC1(OCC(O)CCl)CCCCC1` (stereo not given), for which the survivor count under setting [5] is reported as 2 of 6.
Turning to `C=C(C)C(=O)O[C@H]1CC2=C[C@@H](C[C@@]3(C)O[C@@H]3[C@H]3OC(=O)C(=C)[C@@H]31)OC2=O`, the T/C by setting is: (dose: 3.75 mg/kg/injection, schedule: Q01DX009 (ip), vehicle: water) 133 and 138 % of control; (dose: 5.0 mg/kg/injection, schedule: Q01DX009 (ip), vehicle: saline + alcohol) 127 % of control; (dose: 7.5 mg/kg/injection, schedule: Q01DX009 (ip), vehicle: water) 138 % of control (2×); (dose: 7.5 mg/kg/injection, schedule: Q01DX010 (ip), vehicle: carboxymethylcellulose (CMC)) 140 % of control; (dose: 10.0 mg/kg/injection, schedule: Q01DX009 (ip), vehicle: saline + alcohol) 127 % of control; (dose: 15.0 mg/kg/injection, schedule: Q01DX009 (ip), vehicle: water) 133 and 138 % of control. Besides, the T/C reads like this: (dose: 20.0 mg/kg/injection, schedule: Q01DX009 (ip), vehicle: saline) 145 % of control; (dose: 20.0 mg/kg/injection, schedule: Q01DX010 (ip), vehicle: carboxymethylcellulose (CMC)) 140 % of control; (dose: 30.0 mg/kg/injection, schedule: Q01DX009 (ip), vehicle: water) 142 and 147 % of control; (dose: 40.0 mg/kg/injection, schedule: Q01DX009 (ip), vehicle: saline + alcohol) 127 % of control; (dose: 40.0 mg/kg/injection, schedule: Q01DX010 (ip), vehicle: carboxymethylcellulose (CMC)) 140 % of control; (dose: 60.0 mg/kg/injection, schedule: Q01DX010 (ip), vehicle: carboxymethylcellulose (CMC), evaluated on day 29) 136 % of control. Further, the T/C runs as follows: (dose: 60.0 mg/kg/injection, schedule: Q01DX010 (ip), vehicle: carboxymethylcellulose (CMC), evaluated on day 30) 125 % of control; (dose: 60.0 mg/kg/injection, schedule: Q01DX010 (ip), vehicle: carboxymethylcellulose (CMC), evaluated on day 32) 128 % of control. The survivor count (dose: 90.0 mg/kg/injection, schedule: Q01DX010 (ip), vehicle: carboxymethylcellulose (CMC)) was 3 of 6.
For `CNC(=O)NNc1ccccc1`, for the setting “dose: 100.0 mg/kg/injection, schedule: Q04DX003 (ip), vehicle: Klucel (hydroxypropylcellulose) (HPC)”, the T/C is 125 % of control.
Consider `O=C(CCCCC(=O)Nc1ccc(C2=NCCN2)cc1)Nc1ccc(C2=NCCN2)cc1`, for which the T/C reads like this: (dose: 8.3 mg/kg/injection, schedule: Q01DX009 (ip), vehicle: Klucel (hydroxypropylcellulose) (HPC)) 125 % of control; (dose: 12.0 mg/kg/injection, schedule: Q01DX009 (ip), vehicle: Klucel (hydroxypropylcellulose) (HPC)) 130 % of control; (dose: 19.0 mg/kg/injection, schedule: Q01DX009 (ip), vehicle: Klucel (hydroxypropylcellulose) (HPC)) 127 % of control; (dose: 29.0 mg/kg/injection, schedule: Q01DX009 (ip), vehicle: Klucel (hydroxypropylcellulose) (HPC)) 127 % of control; (dose: 45.0 mg/kg/injection, schedule: Q01DX009 (ip), vehicle: Klucel (hydroxypropylcellulose) (HPC)) 136 % of control; (dose: 132.0 mg/kg/injection, schedule: Q01DX009 (ip), vehicle: Klucel (hydroxypropylcellulose) (HPC)) 136 % of control. Also, the T/C (dose: 264.0 mg/kg/injection, schedule: Q04DX003 (ip), vehicle: Klucel (hydroxypropylcellulose) (HPC)) is 140 % of control.
With `c1ccc2c(c1)OP(OP1Oc3ccccc3O1)O2`, the survivor count is, setting by setting: (dose: 150.0 mg/kg/injection, schedule: Q01DX009 (ip), vehicle: saline with Tween-80) 4 of 6; (dose: 225.0 mg/kg/injection, schedule: Q01DX009 (ip), vehicle: saline with Tween-80) 0 of 6; (dose: 225.0 mg/kg/injection, schedule: Q04DX003 (ip), vehicle: saline) 5 of 6; (dose: 335.0 mg/kg/injection, schedule: Q01DX009 (ip), vehicle: saline with Tween-80) 0 of 6; (dose: 335.0 mg/kg/injection, schedule: Q04DX003 (ip), vehicle: saline) 2 of 6.
On to `CCCCCCCCCCC[N+](C)(C)CC(O)C[N+](C)(C)CCCCCCCCCCC`, for which the survivor count by setting is: under setting [6], 0 of 6; under setting [7], 0 of 6; under setting [4], 0 of 6.
Turning to `CCCCN(C(=O)C(F)(F)F)C(C)(C)C(SSSC(c1cccs1)C(C)(C)N(CCCC)C(=O)C(F)(F)F)c1cccs1` (stereo not given), the T/C is 127 % of control (dose: 200.0 mg/kg/injection, schedule: Q04DX003 (ip), vehicle: saline with Tween-80) and 127 % of control (dose: 400.0 mg/kg/injection, schedule: Q04DX003 (ip), vehicle: saline with Tween-80).
In the case of `C1CN2CCC1CC2`, the T/C under setting [6] is 133 and 135 % of control. The survivor count is listed as 6 of 6 (dose: 75.0 mg/kg/injection, schedule: Q01DX009 (ip), vehicle: saline with Tween-80) and 5 of 6 under setting [7].
As to `CC(=O)OC1C=CCC2C(=O)C34CC=CC(OC(C)=O)C3(C(=O)c3ccccc3C4=O)C(=O)C12` (stereo not given), the survivor count (dose: 6.25 mg/kg/injection, schedule: Q01DX009 (ip), vehicle: saline) is reported as 6 of 6. Also, under setting [2], the T/C is 126 % of control.
